# The campaign covered roughly 360,000 compounds. About 610 (0.17%) were called active. Inconclusive results, whose numbers are uncertain, are shown with a selection of clear calls. Rule as the data show it: active = inhibition above about 30%; inconclusive = no clear call, values can overlap the other calls; inactive = below that.
# System: Botulinum neurotoxin type A light chain protease (Clostridium botulinum A str. ATCC 3502)
# Test: blockers of BoNT/A LC substrate cleavage – biochemical, flow cytometry, MLPCN library, primary screen (AID 588499); also: plate controls were buffer without enzyme for full effect and enzyme alone for no effect
# Conditions: multiplex microsphere protease substrate cleavage, at 10 µM, hits give high values
row,SMILES,inhibition
1,CC(=O)OC1N=C(c2ccccc2Cl)c2cc(Br)ccc2N(C)C1=O (stereo not given),inconclusive: -49%
2,CCn1nc(C)cc1C(=O)N1CCCC(C(=O)c2ccc3ccccc3c2)C1 (stereo not given),inactive: 0.8%
3,COc1ccc(Nc2nc3nonc3nc2N2CCCCC2)cc1,inconclusive: -1.9%
4,O=C(CSc1ccccc1F)OCC(=O)N1CCN(C(=O)c2ccco2)CC1,inconclusive: 0%
5,Cc1ccccc1-c1nc2sc(-c3ccccc3)cc2c(=O)o1,inconclusive: 16%
6,CC(C)N=Cc1c(O)[nH]c2ccccc12,inactive: -2.5%
7,CN(CCS(=O)(=O)c1ccc(Cl)cc1)Cc1cccnc1,inconclusive: -12.6%
8,O=S(=O)(c1ccc(Br)s1)n1cccn1,inconclusive: -1.4%
9,O=C(OCCNC(=O)c1ccc2ccccc2n1)c1ccc(F)cc1,inconclusive: -3.6%
10,CSCC[C@H](NC(=O)C1CCCC1)c1nc2ccccc2[nH]1,inactive: 0%
11,CSc1cccc(NC(=S)N(CCN(C)C)C(C)c2ccccn2)c1 (stereo not given),inactive: 0.5%
12,C=CCC(C(=O)OC)(C(=O)OC)c1ccc([N+](=O)[O-])cn1,inconclusive: -1.6%
13,CCCCc1ccc(NC(=O)CSc2nc(=O)n(CCCN3CCOCC3)c3c2CCC3)cc1,inconclusive: 7.1%
14,CCc1cc(C(=O)COc2ccccc2F)c(O)cc1O,inconclusive: 3.7%
15,Nc1nc(CN2CCN(C(c3ccccc3)c3ccccc3)CC2)nc(Nc2ccccc2)n1,inconclusive: -55.6%
16,CCOc1ccc(-c2nn(-c3ccccc3)cc2/C=C2\SC(=S)N(Cc3ccco3)C2=O)cc1,active: 37%
17,CCOc1ccc(CNC(=O)C2CCCN(S(C)(=O)=O)C2)cc1OC (stereo not given),inconclusive: -1.8%
18,CCOc1cc2nc3c4ccccc4n(C)c3nc2cc1OCC,active: 48.5%
19,Cc1ccc(N2C(=O)C3C(C2=O)C2C=CC3C23CC3)cc1 (stereo not given),inconclusive: 0.6%
20,COC(=O)CCSc1nccn1Cc1ccccc1,inconclusive: -1%

# A few values from the results shown.
# Value for `Cc1ccc(N2C(=O)C3C(C2=O)C2C=CC3C23CC3)cc1` (stereo not given) under inhibition: inconclusive: 0.6%
# Value for `COc1ccc(Nc2nc3nonc3nc2N2CCCCC2)cc1` under inhibition: inconclusive: -1.9%

# Remaining list, next part

row,SMILES,inhibition
1,Cc1cccc(NCc2cccc3ccccc23)n1,inconclusive: -6%
2,CN1C(=O)C(=Cc2ccc(N3CCCCCC3)cc2)C(=O)N(C)C1=O,inactive: 1.1%
3,O=C(Nc1ccc(F)c(F)c1)c1cnc(-c2ccccc2)nc1-c1ccccc1,inconclusive: 4.3%
4,O=C(Nc1ccc(F)c(Cl)c1)c1cc(C2CCCN(S(=O)(=O)c3ccccc3)C2)on1 (stereo not given),inactive: 0.5%
5,CCCCN(CCCC)S(=O)(=O)c1ccc(NS(=O)(=O)c2ccc(NC(C)=O)cc2)cc1,inconclusive: -1.4%
6,COc1cccc(CNc2ccc3[nH]c(=O)[nH]c3c2)c1OCc1ccccc1F,inconclusive: -3.6%
7,O=c1c2ccccc2nc(-c2ccccc2)n1-c1ccncc1,inconclusive: 23.3%
8,O=C1C(C=NCCCN2CCCC2=O)=C(O)c2ccccc21,inactive: 1.2%
9,NC(=O)C(c1ncc(C(F)(F)F)cc1Cl)c1c(Cl)cccc1Cl (stereo not given),inconclusive: 57.9%
10,CC1CCC(N(C)C2CCN(C)CC2)CC1 (stereo not given),inconclusive: -1.8%
11,COc1cccc(C2CC(c3ccccc3)=NN2S(=O)(=O)c2ccc(C)cc2)c1OC (stereo not given),active: 39.4%
12,Cc1cc(-c2nnnn2-c2ccc(C(F)(F)F)cc2)no1,inconclusive: 6.5%
13,O=[N+]([O-])c1cccc(-c2nnc(C3CC3)o2)c1,inconclusive: -28.4%
14,CCOC(=O)c1cc(C(=O)c2cccs2)n2ccc(C(C)=O)cc12,active: 35.3%
15,COc1ccc(Cn2c(=O)c3[nH]cnc3n(-c3ccc(C)cc3)c2=O)cc1,inconclusive: -13.4%
16,O=c1[nH]c(SCC2CCCCO2)nc2ccccc12 (stereo not given),inconclusive: 2.4%
17,Cc1cc(C)nc(SC(C)C(=O)Nc2ccc(S(N)(=O)=O)cc2)n1 (stereo not given),inconclusive: 1.8%
18,O=C(Nc1ccon1)c1ccc2c(c1)OCO2,inconclusive: -0.9%
19,c1ccc2c(c1)Cn1nnnc1-2,inactive: -1%
20,C[C@@H]1CN([C@H](C)CO)C(=O)CCCn2nncc2CO[C@H]1CN(C)C(=O)CCC(F)(F)F,inactive: -0.3%

row,SMILES,inhibition
1,CN(C)CCNC(=O)c1ccc(Cl)s1,inconclusive: -4.1%
2,Cc1cccc(Nc2nc(N)nc(CN3CCN(c4ccccc4)CC3)n2)c1,inconclusive: -2.1%
3,Cc1cccc(N2C(=O)CC(N(C(=O)c3ccco3)c3cccc(C)c3)C2=O)c1 (stereo not given),inconclusive: -5.5%
4,N#CC1(Nc2ccc([N+](=O)[O-])cc2)CCCC1,inactive: 0%
5,COc1ccc(CC(CN)c2ccccc2)cc1 (stereo not given),inconclusive: -0.6%
6,COC(=O)c1cc(C(=O)c2ccc(Cl)cc2Cl)cn1C,inconclusive: 0.9%
7,CCOC(=O)C1CCCN(C(=O)c2ccccc2Oc2ccccc2)C1 (stereo not given),inconclusive: -0.5%
8,Cc1ccc(N2C(=O)C3C4C=CC(CC4)C3C2=O)cc1[N+](=O)[O-] (stereo not given),inconclusive: 0.4%
9,CCOC(=O)Oc1ccc2c(=O)c(Oc3cc(C)cc(C)c3)coc2c1,inconclusive: 2.1%
10,O=C1CCCCCN1C(=O)c1ccccc1,inconclusive: 0.6%
11,Cc1ccc(NC(=O)c2ccc(NCCCN3CCOCC3)c([N+](=O)[O-])c2)cc1Cl,inactive: -0.1%
12,O=S(=O)(N/N=C/c1cccnc1)c1ccc(Cl)c(Cl)c1,inconclusive: 9.2%
13,CCCNC(=O)c1cc(C2CCCCN2S(=O)(=O)Cc2cccc(C(F)(F)F)c2)on1 (stereo not given),inactive: -0.7%
14,CC1CCN(C(=O)C(=O)c2cn(CC(=O)N3CCCCCC3)c3ccccc23)CC1,active: 37.2%
15,O=C(NCc1ccc2c(c1)OCO2)C1CCN(c2ncccn2)CC1,inconclusive: 0.7%
16,O=C(CCCN1C(=O)C2CC=CCC2C1=O)Nc1cccc(F)c1 (stereo not given),inactive: -0.6%
17,Cc1ccc(NC(=O)c2c(C(F)(F)F)nn(C)c2Cl)cc1C,inconclusive: 3%
18,Nc1ccc(C(=O)N/N=C\C=C\c2cccc([N+](=O)[O-])c2)cc1,inactive: -1.1%
19,COc1ccc(C2=Nn3c(nnc3-c3ccccn3)SC2)cc1,inconclusive: -2.8%
20,Cc1cc(C)cc(NC(=O)CC2NCCNC2=O)c1 (stereo not given),inconclusive: -1.1%
